Measured values from the supplement of paper PMC9254222.
Over roughly 1,100 compounds, “Wnt reporter firefly/Renilla luciferase ratio relative to plate median” has its median near 1.1; the highest 2% begin near 1.6. The entries are a selection whose mix differs from that of the whole data set.

System: HEK293T (UBE3A T485A transfected, BAR Wnt reporter)
Test: Wnt reporter firefly/Renilla luciferase ratio relative to plate median (fold (linear ratio)); higher = more Wnt/beta-catenin reporter activation
Details: 24 h
Procedure, shortened: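 HEK293T cells were grown in DMEM with 10% FBS at 37°C and 5% CO2, at 4500 cells/well in white 384-well plates. They were transfected with a BAR firefly luciferase Wnt reporter, TK-Renilla and an expression plasmid using Fugene 6. Four hours later, robots dosed the chemicals at 0.01–100 uM for 24 h, followed by Dual-Glo luciferase readout. Wnt activity (firefly/Renilla ratio) and cell health (raw Renilla) were median-centred per plate, averaged over four biological replicates.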

SMILES | Wnt reporter firefly/Renilla luciferase ratio (concentration: 0.1 uM) | Wnt reporter firefly/Renilla luciferase ratio (concentration: 1 uM) | Wnt reporter firefly/Renilla luciferase ratio (concentration: 10 uM) | Wnt reporter firefly/Renilla luciferase ratio (concentration: 100 uM) | Wnt reporter firefly/Renilla luciferase ratio (concentration: 0.01 uM)
CN(C)N=O [N-Nitrosodimethylamine] | 1.12 | 1.34 | 1.34 | 1.25 | 
COc1cc(-c2ccc(N)c(OC)c2)ccc1N.Cl.Cl [3,3'-Dimethoxybenzidine dihydrochloride] | 1.1 | 1.04 | 0.854 | 0.257 | 
Cc1cc(C2CC2)nc(Nc2ccccc2)n1 [Cyprodinil] | 1.28 | 1.08 | 1.22 | 0.43 | 1.41
C#CCOS(=O)OC1CCCCC1Oc1ccc(C(C)(C)C)cc1 (stereo not drawn) [Propargite] | 1.16 | 1.02 | 0.934 | 0.259 | 1.24
COc1cc(-c2ccc(N)c(OC)c2)ccc1N [3,3'-Dimethoxybenzidine] | 1.2 | 0.858 | 0.899 | 0.321 | 
CC1(c2ccc(Oc3ccccc3)cc2)OC(=O)N(Nc2ccccc2)C1=O (stereo not drawn) [Famoxadone] | 0.933 | 1.05 | 0.214 | 0.815 | 0.995
Brc1ccc(Oc2ccccc2)cc1 [p-Bromodiphenyl ether] | 1.22 | 1.12 | 1.32 | 1.36 | 
C=CC(=O)NCNC(=O)C=C [N,N'-Methylenebisacrylamide] | 0.951 | 0.999 | 1.03 | 1.21 | 
CCCSP(=O)(OCC)Oc1ccc(Br)cc1Cl (stereo not drawn) [Profenofos] | 1.01 | 1.09 | 0.988 | 0.904 | 0.829
Clc1ccc(Cl)c(Cl)c1 [1,2,4-Trichlorobenzene] | 0.911 | 0.886 | 1.04 | 1.57 | 
C[C@]12CCC(=O)C[C@@H]1CC[C@@H]1[C@@H]2CC[C@]2(C)[C@@H](O)CC[C@@H]12 [5alpha-Dihydrotestosterone] | 1.38 | 1.03 | 0.999 | 0.222 | 
CCCCOC(=O)c1ccccc1C(=O)OCc1ccccc1 [Benzyl butyl phthalate] | 0.687 | 0.844 | 0.883 | 1.34 | 
Cc1[nH]c(=O)n(C(C)(C)C)c(=O)c1Cl [Terbacil] | 1.44 | 1.21 | 1.49 | 1.35 | 1.31
C=CCC1=C(C)C(OC(=O)C2C(C=C(C)C)C2(C)C)CC1=O (stereo not drawn) [Allethrin] | 1.06 | 1.01 | 1.08 | 0.868 | 0.989
NC1=NC(O)C2C3OC4(O)OC(C(O)C2(N1)C4O)C3(O)CO (stereo not drawn) [Tetrodotoxin (TTX)] | 1.12 | 1.09 | 1.06 | 1.8 | 1.05
C=CCOC(=O)c1ccccc1C(=O)OCC=C [Diallyl phthalate] | 1.17 | 1.04 | 1.22 | 1.09 | 
CC1(C)C(C=C(Cl)Cl)C1C(=O)OC(C#N)c1ccc(F)c(Oc2ccccc2)c1 (stereo not drawn) [Cyfluthrin] | 0.838 | 1.05 | 1.05 | 0.895 | 1.1
CCOC(=O)CC(SP(=S)(OC)OC)C(=O)OCC (stereo not drawn) [Malathion] | 1.23 | 0.999 | 1.03 | 1.19 | 1.46
CC(O)CCO (stereo not drawn) [1,3-Butanediol] | 0.964 | 0.988 | 1.14 | 1.44 | 
CCc1cccc(CC)c1N [2,6-Diethylaniline] | 0.758 | 0.735 | 0.779 | 0.805 | 
O=C(O)CCCOc1ccc(Cl)cc1Cl | 0.903 | 1 | 0.867 | 0.758 | 0.684

SMILES | Wnt reporter firefly/Renilla luciferase ratio (concentration: 0.1 uM) | Wnt reporter firefly/Renilla luciferase ratio (concentration: 1 uM) | Wnt reporter firefly/Renilla luciferase ratio (concentration: 10 uM) | Wnt reporter firefly/Renilla luciferase ratio (concentration: 100 uM) | Wnt reporter firefly/Renilla luciferase ratio (concentration: 0.01 uM)
CC(C)N(C(=O)COc1nnc(C(F)(F)F)s1)c1ccc(F)cc1 [Flufenacet] | 0.746 | 0.898 | 0.605 | 0.254 | 0.973
CC1(C)C(C=C(Cl)Cl)C1C(=O)OC(C#N)c1cccc(Oc2ccccc2)c1 (stereo not drawn) [Cypermethrin] | 1.14 | 1.06 | 0.991 | 0.601 | 1.02
CCC(C)C1OC2(C=CC1C)CC1CC(CC=C(C)C(OC3CC(OC)C(OC4CC(OC)C(O)C(C)O4)C(C)O3)C(C)C=CC=C3COC4C(O)C(C)=CC(C(=O)O1)C34O)O2 (stereo not drawn) [Abamectin] | 1.18 | 1.23 | 0.533 |  | 1.17
CCC(CC)Nc1c([N+](=O)[O-])cc(C)c(C)c1[N+](=O)[O-] [Pendimethalin] | 0.866 | 0.946 | 0.92 | 1.08 | 0.882
Nc1cnn(-c2ccccc2)c(=O)c1Cl [Chloridazon] | 0.892 | 0.898 | 0.72 | 1.04 | 0.94
[Na+].[O-][n+]1ccccc1[S-] [Sodium (2-pyridylthio)-N-oxide] | 1.19 | 1 | 1 |  | 
Clc1ccc(C(c2ccc(Cl)cc2)C(Cl)(Cl)Cl)cc1 | 1.31 | 1.31 | 1.15 | 1.34 | 
Nc1ccc2ccccc2c1 [2-Naphthylamine] | 0.991 | 0.869 | 0.998 | 0.629 | 
CCC(C)(C)c1ccc(O)c(C(C)(C)CC)c1 [2,4-Bis(2-methylbutan-2-yl)phenol] | 1.09 | 1.21 | 0.893 | 1.26 | 
CC(C1CC1)C(O)(Cn1cncn1)c1ccc(Cl)cc1 (stereo not drawn) [Cyproconazole] | 0.976 | 0.917 | 1.03 | 0.259 | 0.848
CC(C)COC(=O)c1ccccc1C(=O)OCC(C)C [Diisobutyl phthalate] | 1.08 | 1.09 | 0.977 | 1.14 | 
CC(C)(C)OOC(=O)c1ccccc1 [tert-Butyl perbenzoate] | 1.06 | 0.994 | 1.24 | 0.688 | 
O=C(N[C@H]1CN2CCC1CC2)c1cc2ccoc2cn1 | 1.08 | 0.943 | 0.877 | 0.842 | 
CC(C)(C)c1ccc(CCOc2ncnc3ccccc23)cc1 [Fenazaquin] | 0.768 | 0.93 | 0.155 | 0.51 | 0.818
Nc1c(Cl)c(F)nc(OCC(=O)O)c1Cl [Fluroxypyr] | 0.91 | 0.994 | 0.96 | 1.46 | 0.709
Oc1ccccc1-c1ccccc1 [2-Phenylphenol] | 0.805 | 0.923 | 0.966 | 0.723 | 0.842
CCOP(=S)(OCC)SCSC(C)(C)C [Terbufos] | 1.28 | 1.01 | 1.16 | 1.27 | 
Cc1cnc(C2=NC(=O)C(C)(C(C)C)N2)c(C(=O)O)c1 (stereo not drawn) [Imazapic] | 0.816 | 0.93 | 0.839 | 1.3 | 0.825
CCCSC(=O)N(CCC)CCC [Vernolate] | 0.888 | 1.38 | 1.11 | 0.997 | 
c1ccc(N=Nc2ccccc2)cc1 [Azobenzene] | 1.35 | 1.05 | 1.38 | 1.1 | 
Cc1nn(-c2cc(NS(C)(=O)=O)c(Cl)cc2Cl)c(=O)n1C(F)F [Sulfentrazone] | 0.917 | 1.08 | 1.09 | 0.657 | 0.946

SMILES | Wnt reporter firefly/Renilla luciferase ratio (concentration: 0.1 uM) | Wnt reporter firefly/Renilla luciferase ratio (concentration: 1 uM) | Wnt reporter firefly/Renilla luciferase ratio (concentration: 10 uM) | Wnt reporter firefly/Renilla luciferase ratio (concentration: 100 uM) | Wnt reporter firefly/Renilla luciferase ratio (concentration: 0.01 uM)
CCCCCCCCn1sccc1=O [Octhilinone] | 1.02 | 1.15 | 1.07 |  | 
Oc1ccc(C(c2ccc(O)cc2)(C(F)(F)F)C(F)(F)F)cc1 [Bisphenol AF] | 0.887 | 1.08 | 0.718 | 0.605 | 
O=Cc1ccco1 [Furfural] | 0.772 | 0.902 | 0.924 | 1.01 | 
COCC(=O)N(c1c(C)cccc1C)C(C)C(=O)OC (stereo not drawn) [Metalaxyl] | 1.06 | 0.996 | 1.2 | 1.05 | 1.26
COc1cc(C=O)cc2c1[C@H](COC(N)=O)[C@]1(OC(C)=O)ON2C[C@H]2[C@@H]1N2C(C)=O | 0.42 |  |  |  | 
CCOC(=O)c1ccccc1C(=O)OCC [Diethyl phthalate] | 0.841 | 1.05 | 1.21 | 1.26 | 
Clc1ccccc1-c1nnc(-c2ccccc2Cl)nn1 [Clofentezine] | 1.25 | 0.999 | 1.19 | 1.59 | 1.31
CCC(C)(NC(=O)c1cc(Cl)c(C)c(Cl)c1)C(=O)CCl (stereo not drawn) [Zoxamide] | 1.45 | 1.24 | 1.32 |  | 1.47
Oc1ccccc1Cl [2-Chlorophenol] | 0.951 | 0.944 | 1.24 | 1.52 | 
O=C(O)C(Cl)(Cl)Cl [Trichloroacetic acid] | 1.28 | 1.04 | 1.09 | 1.37 | 
Nc1c(Cl)c(Cl)nc(C(=O)O)c1Cl [Picloram] | 1.47 | 1 | 1.13 | 1.28 | 0.972
CCN1CCC2(CC1)COc1cc3c(cc12)N(C(=O)c1ccc(-c2ccc(-c4nnc(C)o4)cc2C)cc1)CC3.Cl | 1.26 | 0.778 | 0.416 |  | 
CCOP(=S)(OCC)SCn1c(=O)oc2cc(Cl)ccc21 [Phosalone] | 1.45 | 1.27 | 1.03 | 0.607 | 1.62
CCCCCOC(=O)c1ccccc1C(=O)OCCCCC [Dipentyl phthalate] | 1.06 | 1.36 | 1.14 | 1.15 | 
Oc1ccc(Cl)cc1Cl [2,4-Dichlorophenol] | 1.06 | 1.15 | 1.36 | 1.47 | 
CC(C)(c1ccccc1)c1ccc(O)c(C(C)(C)c2ccccc2)c1 [2,4-Bis(1-methyl-1-phenylethyl)phenol] | 0.975 | 1.08 | 1.09 | 0.94 | 
COc1cnc(OC)n2nc(NS(=O)(=O)c3c(OCC(F)F)cccc3C(F)(F)F)nc12 [Penoxsulam] |  |  |  | 1.75 | 
CC(C)(OO)c1ccccc1 [Cumene hydroperoxide] | 0.958 | 0.714 | 0.747 | 0.824 | 
COc1ccc(C)cc1N [2-Methoxy-5-methylaniline] | 1.14 | 1.31 | 1.26 | 1.29 | 
CCOC1Oc2ccc(OS(C)(=O)=O)cc2C1(C)C (stereo not drawn) [Ethofumesate] | 0.973 | 1.03 | 1.14 | 1.86 | 1.05
CCC1(c2ccccc2)C(=O)N=C([O-])NC1=O.[Na+] (stereo not drawn) [Phenobarbital sodium] | 1.14 | 1.18 | 1.27 | 1.16 | 

Reformatted: 2 of the compounds above
SMILES,Wnt reporter firefly/Renilla luciferase ratio (concentration: 0.1 uM),Wnt reporter firefly/Renilla luciferase ratio (concentration: 1 uM),Wnt reporter firefly/Renilla luciferase ratio (concentration: 10 uM),Wnt reporter firefly/Renilla luciferase ratio (concentration: 100 uM),Wnt reporter firefly/Renilla luciferase ratio (concentration: 0.01 uM)
Brc1ccc(Oc2ccccc2)cc1 [p-Bromodiphenyl ether],1.22,1.12,1.32,1.36,
Clc1ccccc1-c1nnc(-c2ccccc2Cl)nn1 [Clofentezine],1.25,0.999,1.19,1.59,1.31
